The target in assay [1] is PHL4 fused to a half of luciferase (PHL4-cLUC or PHL4-nLUC) (Arabidopsis thaliana) (UniProt Q8GXC2). Kind of assay: split reporter; luciferase complementation imaging (LCI): nLUC and cLUC fusions co-expressed in leaves of N. benthamiana under the 35S CaMV promoter.
Assay [2] addresses PHOSPHATE RESPONSE 1 (PHR1) fused to the N-terminal half of luciferase (Arabidopsis thaliana) (UniProt Q94CL7). The assay is described as above.
For assay [3], the target named is T1, PHR1-like 1 (PHL1) fused to the C-terminal half of luciferase (Arabidopsis thaliana) (UniProt Q8GUN5).
T1 sequence: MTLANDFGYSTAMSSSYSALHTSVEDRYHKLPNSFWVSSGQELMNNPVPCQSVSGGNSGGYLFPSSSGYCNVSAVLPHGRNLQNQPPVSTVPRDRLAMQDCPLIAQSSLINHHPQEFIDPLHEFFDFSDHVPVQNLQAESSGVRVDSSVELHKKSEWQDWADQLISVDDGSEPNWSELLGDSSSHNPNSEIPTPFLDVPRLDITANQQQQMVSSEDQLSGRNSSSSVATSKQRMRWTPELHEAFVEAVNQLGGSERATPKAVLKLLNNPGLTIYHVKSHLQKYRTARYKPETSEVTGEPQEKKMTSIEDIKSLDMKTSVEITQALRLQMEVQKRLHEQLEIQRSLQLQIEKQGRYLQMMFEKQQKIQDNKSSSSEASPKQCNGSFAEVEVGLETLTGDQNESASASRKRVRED
Described as above.

Sequences of proteins named here, by UniProt entry; tags and fusion partners are left off.
UniProt Q94CL7: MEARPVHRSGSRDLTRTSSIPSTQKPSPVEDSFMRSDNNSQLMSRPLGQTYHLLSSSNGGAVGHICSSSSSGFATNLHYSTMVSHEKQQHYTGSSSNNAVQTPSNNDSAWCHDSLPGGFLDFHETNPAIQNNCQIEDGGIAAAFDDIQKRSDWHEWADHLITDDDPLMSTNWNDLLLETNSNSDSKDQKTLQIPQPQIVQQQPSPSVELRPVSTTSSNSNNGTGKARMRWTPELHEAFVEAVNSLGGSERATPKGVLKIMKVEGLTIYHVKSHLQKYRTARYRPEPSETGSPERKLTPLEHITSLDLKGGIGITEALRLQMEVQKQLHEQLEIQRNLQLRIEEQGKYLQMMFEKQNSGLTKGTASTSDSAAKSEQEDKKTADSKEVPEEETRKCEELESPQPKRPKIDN

The target in assay [4] is T2, PHL1 fused to a half of YFP (BiFC construct) (Arabidopsis thaliana) (UniProt Q8GUN5).
T2 sequence: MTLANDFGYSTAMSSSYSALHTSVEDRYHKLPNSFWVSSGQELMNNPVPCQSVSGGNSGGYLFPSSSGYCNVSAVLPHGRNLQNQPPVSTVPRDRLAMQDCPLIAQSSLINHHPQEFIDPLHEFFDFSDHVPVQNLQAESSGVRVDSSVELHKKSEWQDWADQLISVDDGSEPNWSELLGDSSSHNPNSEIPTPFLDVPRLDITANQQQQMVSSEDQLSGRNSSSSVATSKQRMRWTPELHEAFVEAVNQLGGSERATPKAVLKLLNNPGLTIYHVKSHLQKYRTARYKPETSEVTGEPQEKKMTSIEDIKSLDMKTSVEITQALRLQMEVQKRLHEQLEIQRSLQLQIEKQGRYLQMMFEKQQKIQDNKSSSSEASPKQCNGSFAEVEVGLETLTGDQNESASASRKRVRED
Kind of assay: split reporter; bimolecular fluorescence complementation (BiFC): nYFP and cYFP fusions in leaves of N. benthamiana.

Assay [5] concerns the target PHL4 fused to a half of YFP (BiFC construct) (Arabidopsis thaliana) (UniProt Q8GXC2). Described as above.
Assay [6] concerns the target T3, PHL1 fused to the DNA-binding domain of GAL4 (Arabidopsis thaliana) (UniProt Q8GUN5).
T3 sequence: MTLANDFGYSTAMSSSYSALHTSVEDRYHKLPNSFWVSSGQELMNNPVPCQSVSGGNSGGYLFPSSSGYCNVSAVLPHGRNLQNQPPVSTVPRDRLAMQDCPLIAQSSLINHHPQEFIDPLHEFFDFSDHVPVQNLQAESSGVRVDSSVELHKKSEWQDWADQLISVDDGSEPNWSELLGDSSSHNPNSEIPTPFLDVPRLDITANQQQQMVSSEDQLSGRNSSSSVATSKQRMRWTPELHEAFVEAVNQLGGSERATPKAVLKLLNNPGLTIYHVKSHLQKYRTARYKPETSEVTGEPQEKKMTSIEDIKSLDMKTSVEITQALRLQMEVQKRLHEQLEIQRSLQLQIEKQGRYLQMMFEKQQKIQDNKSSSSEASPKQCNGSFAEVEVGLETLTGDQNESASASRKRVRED
Kind of assay: two-hybrid; Matchmaker GAL4 system, yeast strain AH109; pGBKT7 (BD) and pGADT7 (AD) fusions; selection on SD/-Trp/-Leu/-His and SD/-Trp/-Leu/-His/-Ade.

Assay [7] deals with PHR1 fused to the DNA-binding domain of GAL4 (Arabidopsis thaliana) (UniProt Q94CL7). The description is as above.

These are yes or no findings as the source states them, for the method shown. For some assays here: In cells and extracts the contact can be indirect. Some entries that bind do so weakly or less than the wild type. Tags and fused reporters may be left off the sequences shown.

B1: PHL4 fused to a half of luciferase (PHL4-cLUC or PHL4-nLUC) (protein, UniProt Q8GXC2 1-397)
chain: MIPNDDDDANSMKNYPLNDDDANSMKNYPLNDDDANSMENYPLRSIPTELSHTCSLIPPSLPNPSEAAADMSFNSELNQIMARPCDMLPANGGAVGHNPFLEPGFNCPETTDWIPSPLPHIYFPSGSPNLIMEDGVIDEIHKQSDLPLWYDDLITTDEDPLMSSILGDLLLDTNFNSASKVQQPSMQSQIQQPQAVLQQPSSCVELRPLDRTVSSNSNNNSNSNNAAAAAKGRMRWTPELHEVFVDAVNQLGGSNEATPKGVLKHMKVEGLTIFHVKSHLQKYRTAKYIPVPSEGSPEARLTPLEQITSDDTKRGIDITETLRIQMEHQKKLHEQLESLRTMQLRIEEQGKALLMMIEKQNMGFGGPEQGEKTSAKTPENGSEESESPRPKRPRNEE
For the molecule B1, the binding result in assay [1], in assay [2] and in assay [3] was “binds” throughout.

B2: PHL4 fused to a half of YFP (BiFC construct) (protein, UniProt Q8GXC2 1-397)
chain: MIPNDDDDANSMKNYPLNDDDANSMKNYPLNDDDANSMENYPLRSIPTELSHTCSLIPPSLPNPSEAAADMSFNSELNQIMARPCDMLPANGGAVGHNPFLEPGFNCPETTDWIPSPLPHIYFPSGSPNLIMEDGVIDEIHKQSDLPLWYDDLITTDEDPLMSSILGDLLLDTNFNSASKVQQPSMQSQIQQPQAVLQQPSSCVELRPLDRTVSSNSNNNSNSNNAAAAAKGRMRWTPELHEVFVDAVNQLGGSNEATPKGVLKHMKVEGLTIFHVKSHLQKYRTAKYIPVPSEGSPEARLTPLEQITSDDTKRGIDITETLRIQMEHQKKLHEQLESLRTMQLRIEEQGKALLMMIEKQNMGFGGPEQGEKTSAKTPENGSEESESPRPKRPRNEE
Regarding B2, the binding entry in assay [4] and in assay [5] was “binds” throughout.

B3: PHL4 fused to the transcriptional activation domain of GAL4 (protein, UniProt Q8GXC2 1-397)
chain: MIPNDDDDANSMKNYPLNDDDANSMKNYPLNDDDANSMENYPLRSIPTELSHTCSLIPPSLPNPSEAAADMSFNSELNQIMARPCDMLPANGGAVGHNPFLEPGFNCPETTDWIPSPLPHIYFPSGSPNLIMEDGVIDEIHKQSDLPLWYDDLITTDEDPLMSSILGDLLLDTNFNSASKVQQPSMQSQIQQPQAVLQQPSSCVELRPLDRTVSSNSNNNSNSNNAAAAAKGRMRWTPELHEVFVDAVNQLGGSNEATPKGVLKHMKVEGLTIFHVKSHLQKYRTAKYIPVPSEGSPEARLTPLEQITSDDTKRGIDITETLRIQMEHQKKLHEQLESLRTMQLRIEEQGKALLMMIEKQNMGFGGPEQGEKTSAKTPENGSEESESPRPKRPRNEE
For B3, the binding entry in assay [6] and in assay [7] was “binds” in each case.

B4: PHR1-like 1 (PHL1) fused to the C-terminal half of luciferase (protein, UniProt Q8GUN5 1-413)
chain: MTLANDFGYSTAMSSSYSALHTSVEDRYHKLPNSFWVSSGQELMNNPVPCQSVSGGNSGGYLFPSSSGYCNVSAVLPHGRNLQNQPPVSTVPRDRLAMQDCPLIAQSSLINHHPQEFIDPLHEFFDFSDHVPVQNLQAESSGVRVDSSVELHKKSEWQDWADQLISVDDGSEPNWSELLGDSSSHNPNSEIPTPFLDVPRLDITANQQQQMVSSEDQLSGRNSSSSVATSKQRMRWTPELHEAFVEAVNQLGGSERATPKAVLKLLNNPGLTIYHVKSHLQKYRTARYKPETSEVTGEPQEKKMTSIEDIKSLDMKTSVEITQALRLQMEVQKRLHEQLEIQRSLQLQIEKQGRYLQMMFEKQQKIQDNKSSSSEASPKQCNGSFAEVEVGLETLTGDQNESASASRKRVRED
On to B4, for which the binding entry in assay [2] is recorded as “binds”.

(Values after paper PMC11066281.)
